Measurements: publication doi:10.1101/2021.12.08.471790
No constants are given. Whether binding was seen depends on the method and setting. Binding seen in cells or lysates may run through a third protein. Some entries that bind do so weakly or less than the wild type.

By UniProt entry, the sequences of proteins in these tests, tags left out. Residues count along the entry.
UniProt Q03431, residues 27-593: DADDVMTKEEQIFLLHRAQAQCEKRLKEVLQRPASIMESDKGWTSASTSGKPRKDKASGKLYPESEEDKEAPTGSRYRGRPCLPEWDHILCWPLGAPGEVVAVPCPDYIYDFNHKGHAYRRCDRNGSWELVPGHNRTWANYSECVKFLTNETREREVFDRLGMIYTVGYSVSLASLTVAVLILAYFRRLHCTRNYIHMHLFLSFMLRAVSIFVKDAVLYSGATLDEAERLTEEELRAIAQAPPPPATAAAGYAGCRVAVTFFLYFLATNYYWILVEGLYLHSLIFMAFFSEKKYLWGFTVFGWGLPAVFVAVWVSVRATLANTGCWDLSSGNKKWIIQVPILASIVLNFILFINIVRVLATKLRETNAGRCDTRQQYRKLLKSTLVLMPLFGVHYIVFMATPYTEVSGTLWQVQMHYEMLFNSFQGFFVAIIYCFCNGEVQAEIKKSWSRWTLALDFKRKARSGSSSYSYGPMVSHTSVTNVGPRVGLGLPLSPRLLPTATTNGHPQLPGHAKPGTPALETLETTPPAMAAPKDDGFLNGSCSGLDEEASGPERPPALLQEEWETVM
UniProt P32121: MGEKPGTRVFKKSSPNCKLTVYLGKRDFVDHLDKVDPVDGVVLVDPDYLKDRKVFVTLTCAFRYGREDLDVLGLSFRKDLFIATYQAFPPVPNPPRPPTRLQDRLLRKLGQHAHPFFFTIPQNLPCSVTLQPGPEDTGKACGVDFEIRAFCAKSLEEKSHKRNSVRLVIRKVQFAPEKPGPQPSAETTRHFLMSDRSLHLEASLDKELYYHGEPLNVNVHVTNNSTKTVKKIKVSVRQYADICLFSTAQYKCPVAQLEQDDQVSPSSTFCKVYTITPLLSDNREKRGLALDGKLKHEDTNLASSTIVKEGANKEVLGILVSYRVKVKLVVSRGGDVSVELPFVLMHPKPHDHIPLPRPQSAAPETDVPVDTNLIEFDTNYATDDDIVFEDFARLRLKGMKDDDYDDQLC
UniProt O60895, residues 43-175: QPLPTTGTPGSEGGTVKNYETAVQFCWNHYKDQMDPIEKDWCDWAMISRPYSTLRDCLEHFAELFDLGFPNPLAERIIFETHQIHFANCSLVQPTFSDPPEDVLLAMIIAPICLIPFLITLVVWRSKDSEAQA

Columns and labels:
[1] = biological target: HA-PTH1R_(NanoLuc) (human) (UniProt Q03431); assay: FRET or BRET
[2] = biological target: PTH1R labelled with a C-terminal mCitrine (HA-PTH1R_(mCitrine)) (human) (UniProt Q03431); assay: FRET or BRET

| Substance | binding [1] | binding [2] |
| --- | --- | --- |
| β-arrestin2_(mVenus) (from UniProt P32121 1-409) | binds |  |
| RAMP2 labelled at its intracellular C-terminus with mTurquoise2 (from UniProt O60895 43-175) |  | binds |
